Laboratory results from PMC11188183.
No constants are given. Whether binding was seen depends on the method and setting. In cells and extracts the contact can be indirect. These calls come from enrichment with a bait or labelling near it, and not all partners need be listed.

Chains of the proteins cited; added tags and fusions are not shown.
UniProt P08727: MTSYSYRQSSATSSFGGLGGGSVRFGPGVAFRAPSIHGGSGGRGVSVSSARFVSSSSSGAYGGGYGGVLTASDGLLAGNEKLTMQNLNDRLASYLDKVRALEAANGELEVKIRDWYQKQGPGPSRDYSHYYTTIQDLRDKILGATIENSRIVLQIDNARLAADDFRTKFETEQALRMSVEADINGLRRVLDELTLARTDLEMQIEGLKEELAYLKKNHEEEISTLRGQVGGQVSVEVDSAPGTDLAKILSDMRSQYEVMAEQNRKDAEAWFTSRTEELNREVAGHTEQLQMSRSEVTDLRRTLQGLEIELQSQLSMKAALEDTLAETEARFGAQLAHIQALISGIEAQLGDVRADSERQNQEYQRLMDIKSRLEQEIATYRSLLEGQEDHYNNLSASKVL
UniProt Q02539: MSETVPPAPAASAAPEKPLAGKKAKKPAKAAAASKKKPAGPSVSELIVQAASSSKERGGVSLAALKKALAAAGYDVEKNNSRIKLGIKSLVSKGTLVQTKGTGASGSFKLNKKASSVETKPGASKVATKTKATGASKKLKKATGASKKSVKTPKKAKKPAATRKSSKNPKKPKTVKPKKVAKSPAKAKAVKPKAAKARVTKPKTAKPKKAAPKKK
UniProt P35580: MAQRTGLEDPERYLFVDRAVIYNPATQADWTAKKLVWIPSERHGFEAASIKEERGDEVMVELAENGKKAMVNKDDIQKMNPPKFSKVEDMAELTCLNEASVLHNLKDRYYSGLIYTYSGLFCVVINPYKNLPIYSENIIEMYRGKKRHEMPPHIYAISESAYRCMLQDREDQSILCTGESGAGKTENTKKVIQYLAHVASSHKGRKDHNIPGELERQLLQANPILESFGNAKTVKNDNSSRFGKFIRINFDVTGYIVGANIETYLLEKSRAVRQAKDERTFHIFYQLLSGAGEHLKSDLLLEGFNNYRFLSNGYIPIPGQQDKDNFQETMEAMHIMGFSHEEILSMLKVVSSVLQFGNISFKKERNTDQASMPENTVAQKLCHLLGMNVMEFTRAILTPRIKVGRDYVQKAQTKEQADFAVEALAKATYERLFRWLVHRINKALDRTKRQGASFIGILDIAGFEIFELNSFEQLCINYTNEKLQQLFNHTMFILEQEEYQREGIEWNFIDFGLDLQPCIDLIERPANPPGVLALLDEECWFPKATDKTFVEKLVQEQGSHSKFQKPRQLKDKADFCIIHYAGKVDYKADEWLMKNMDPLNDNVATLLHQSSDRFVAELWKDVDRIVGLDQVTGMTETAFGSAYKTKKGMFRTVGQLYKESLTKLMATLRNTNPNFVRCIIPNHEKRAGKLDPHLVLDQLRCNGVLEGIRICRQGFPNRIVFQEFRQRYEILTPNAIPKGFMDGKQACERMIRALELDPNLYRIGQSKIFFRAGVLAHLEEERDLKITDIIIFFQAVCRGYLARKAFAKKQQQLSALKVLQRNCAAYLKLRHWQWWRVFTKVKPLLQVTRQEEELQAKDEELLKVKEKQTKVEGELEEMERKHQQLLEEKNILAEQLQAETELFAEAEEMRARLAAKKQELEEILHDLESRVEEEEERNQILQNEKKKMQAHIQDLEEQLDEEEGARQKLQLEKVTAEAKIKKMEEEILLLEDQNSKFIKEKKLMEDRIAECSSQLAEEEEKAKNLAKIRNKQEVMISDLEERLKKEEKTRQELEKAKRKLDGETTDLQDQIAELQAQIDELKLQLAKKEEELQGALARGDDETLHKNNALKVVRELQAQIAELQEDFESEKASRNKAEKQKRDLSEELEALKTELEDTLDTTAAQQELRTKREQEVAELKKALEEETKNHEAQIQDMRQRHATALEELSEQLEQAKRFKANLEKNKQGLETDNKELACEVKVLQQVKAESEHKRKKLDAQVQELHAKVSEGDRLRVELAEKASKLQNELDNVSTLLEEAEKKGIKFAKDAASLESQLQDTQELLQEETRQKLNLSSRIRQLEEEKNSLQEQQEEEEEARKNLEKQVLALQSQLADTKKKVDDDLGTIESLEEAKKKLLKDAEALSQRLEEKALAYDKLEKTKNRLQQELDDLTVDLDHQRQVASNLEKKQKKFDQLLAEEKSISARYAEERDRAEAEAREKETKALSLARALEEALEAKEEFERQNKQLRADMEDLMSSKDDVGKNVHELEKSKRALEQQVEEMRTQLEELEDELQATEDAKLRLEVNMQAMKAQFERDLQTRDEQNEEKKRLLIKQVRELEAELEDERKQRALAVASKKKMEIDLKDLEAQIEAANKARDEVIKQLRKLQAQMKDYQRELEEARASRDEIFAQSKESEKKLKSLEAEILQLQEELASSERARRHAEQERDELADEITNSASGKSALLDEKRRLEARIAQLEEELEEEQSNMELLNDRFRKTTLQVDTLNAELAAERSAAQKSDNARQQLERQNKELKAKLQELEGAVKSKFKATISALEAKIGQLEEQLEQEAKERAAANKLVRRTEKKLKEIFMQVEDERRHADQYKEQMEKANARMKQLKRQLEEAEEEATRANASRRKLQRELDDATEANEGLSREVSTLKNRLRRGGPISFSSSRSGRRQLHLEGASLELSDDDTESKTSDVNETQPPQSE
UniProt Q9UHB6: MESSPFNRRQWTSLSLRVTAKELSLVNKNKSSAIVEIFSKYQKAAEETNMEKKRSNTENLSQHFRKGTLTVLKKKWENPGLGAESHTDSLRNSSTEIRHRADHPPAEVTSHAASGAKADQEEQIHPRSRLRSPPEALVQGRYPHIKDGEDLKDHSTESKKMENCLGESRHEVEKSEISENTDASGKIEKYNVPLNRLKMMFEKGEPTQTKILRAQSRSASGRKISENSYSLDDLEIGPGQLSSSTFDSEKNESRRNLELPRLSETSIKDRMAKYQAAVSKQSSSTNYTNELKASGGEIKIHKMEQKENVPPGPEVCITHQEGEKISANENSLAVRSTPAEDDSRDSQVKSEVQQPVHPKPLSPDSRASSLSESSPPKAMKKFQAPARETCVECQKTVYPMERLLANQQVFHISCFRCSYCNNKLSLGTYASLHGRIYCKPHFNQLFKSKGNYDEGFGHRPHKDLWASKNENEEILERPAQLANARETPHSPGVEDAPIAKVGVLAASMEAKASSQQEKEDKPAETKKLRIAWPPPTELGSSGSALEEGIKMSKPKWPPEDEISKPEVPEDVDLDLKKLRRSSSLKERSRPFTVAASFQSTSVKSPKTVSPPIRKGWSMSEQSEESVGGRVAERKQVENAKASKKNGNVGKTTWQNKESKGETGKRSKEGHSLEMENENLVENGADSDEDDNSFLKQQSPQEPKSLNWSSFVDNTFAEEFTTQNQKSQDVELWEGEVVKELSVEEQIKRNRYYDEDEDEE
UniProt Q6NVV1: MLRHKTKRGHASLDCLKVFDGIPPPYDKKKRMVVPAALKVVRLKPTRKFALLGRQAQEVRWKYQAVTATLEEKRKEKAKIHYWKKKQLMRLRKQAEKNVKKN
UniProt Q5VTE0: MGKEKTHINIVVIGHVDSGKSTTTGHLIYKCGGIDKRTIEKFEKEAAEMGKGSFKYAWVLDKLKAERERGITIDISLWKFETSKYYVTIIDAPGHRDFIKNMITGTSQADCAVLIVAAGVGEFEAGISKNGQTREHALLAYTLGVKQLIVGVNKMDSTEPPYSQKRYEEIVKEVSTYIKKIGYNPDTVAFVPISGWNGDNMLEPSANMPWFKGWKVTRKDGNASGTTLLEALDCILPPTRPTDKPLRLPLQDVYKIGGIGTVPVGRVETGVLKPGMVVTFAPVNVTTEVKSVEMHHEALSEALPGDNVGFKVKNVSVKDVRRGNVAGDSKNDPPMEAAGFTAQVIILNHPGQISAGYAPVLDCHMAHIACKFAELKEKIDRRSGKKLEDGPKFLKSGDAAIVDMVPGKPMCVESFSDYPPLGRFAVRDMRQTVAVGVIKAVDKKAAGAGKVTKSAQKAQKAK
UniProt Q6S8J3: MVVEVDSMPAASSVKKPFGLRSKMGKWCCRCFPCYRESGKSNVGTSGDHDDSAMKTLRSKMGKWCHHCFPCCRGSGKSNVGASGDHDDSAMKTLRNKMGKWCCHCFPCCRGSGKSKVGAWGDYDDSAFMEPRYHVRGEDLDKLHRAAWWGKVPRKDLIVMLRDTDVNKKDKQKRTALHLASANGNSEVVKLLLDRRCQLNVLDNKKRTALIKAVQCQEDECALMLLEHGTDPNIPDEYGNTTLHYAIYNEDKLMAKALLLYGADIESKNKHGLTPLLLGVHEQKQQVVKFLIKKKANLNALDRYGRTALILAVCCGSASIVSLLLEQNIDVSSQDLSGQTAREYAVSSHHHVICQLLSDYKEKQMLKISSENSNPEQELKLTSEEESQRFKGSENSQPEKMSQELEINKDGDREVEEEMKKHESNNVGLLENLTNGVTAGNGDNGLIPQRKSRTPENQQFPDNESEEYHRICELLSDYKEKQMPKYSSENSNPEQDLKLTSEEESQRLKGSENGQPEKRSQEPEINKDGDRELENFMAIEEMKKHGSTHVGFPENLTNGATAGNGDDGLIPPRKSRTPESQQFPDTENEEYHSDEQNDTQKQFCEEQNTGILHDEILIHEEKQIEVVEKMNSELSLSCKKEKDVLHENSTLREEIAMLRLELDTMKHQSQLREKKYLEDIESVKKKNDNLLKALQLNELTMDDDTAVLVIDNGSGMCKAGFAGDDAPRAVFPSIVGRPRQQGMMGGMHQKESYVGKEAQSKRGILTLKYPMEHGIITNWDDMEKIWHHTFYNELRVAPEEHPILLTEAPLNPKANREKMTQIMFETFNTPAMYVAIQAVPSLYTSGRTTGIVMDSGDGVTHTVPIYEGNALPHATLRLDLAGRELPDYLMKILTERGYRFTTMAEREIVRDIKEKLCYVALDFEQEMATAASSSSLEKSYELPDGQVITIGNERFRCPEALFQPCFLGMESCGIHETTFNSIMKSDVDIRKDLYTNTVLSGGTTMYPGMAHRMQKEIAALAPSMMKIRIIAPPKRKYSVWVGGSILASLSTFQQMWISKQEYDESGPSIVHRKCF
UniProt P26599: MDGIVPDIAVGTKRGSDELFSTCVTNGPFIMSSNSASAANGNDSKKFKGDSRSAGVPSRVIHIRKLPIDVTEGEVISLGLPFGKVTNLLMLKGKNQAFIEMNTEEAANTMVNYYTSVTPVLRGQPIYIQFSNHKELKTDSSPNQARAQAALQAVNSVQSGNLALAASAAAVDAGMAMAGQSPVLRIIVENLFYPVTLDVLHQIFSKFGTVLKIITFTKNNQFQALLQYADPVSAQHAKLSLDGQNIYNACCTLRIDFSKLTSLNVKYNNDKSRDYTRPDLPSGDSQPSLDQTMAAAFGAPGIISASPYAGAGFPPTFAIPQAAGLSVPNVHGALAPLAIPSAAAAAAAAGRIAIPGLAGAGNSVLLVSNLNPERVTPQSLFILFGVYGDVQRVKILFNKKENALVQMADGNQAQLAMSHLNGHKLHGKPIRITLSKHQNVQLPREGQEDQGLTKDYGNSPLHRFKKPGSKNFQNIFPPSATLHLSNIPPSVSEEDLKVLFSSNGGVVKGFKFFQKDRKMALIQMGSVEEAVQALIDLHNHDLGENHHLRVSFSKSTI
UniProt P68104: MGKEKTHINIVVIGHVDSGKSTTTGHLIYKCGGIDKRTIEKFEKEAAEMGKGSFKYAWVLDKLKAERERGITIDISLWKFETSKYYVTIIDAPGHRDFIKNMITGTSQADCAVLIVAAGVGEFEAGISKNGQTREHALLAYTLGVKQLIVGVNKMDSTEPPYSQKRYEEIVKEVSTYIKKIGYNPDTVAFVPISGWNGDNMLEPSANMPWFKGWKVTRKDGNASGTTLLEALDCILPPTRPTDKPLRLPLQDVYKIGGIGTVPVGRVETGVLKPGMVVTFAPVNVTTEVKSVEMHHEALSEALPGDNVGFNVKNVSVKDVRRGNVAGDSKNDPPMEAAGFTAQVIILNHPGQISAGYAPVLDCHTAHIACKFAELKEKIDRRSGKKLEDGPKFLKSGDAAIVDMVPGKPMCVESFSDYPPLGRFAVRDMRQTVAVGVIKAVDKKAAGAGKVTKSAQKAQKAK
UniProt Q6PEY2: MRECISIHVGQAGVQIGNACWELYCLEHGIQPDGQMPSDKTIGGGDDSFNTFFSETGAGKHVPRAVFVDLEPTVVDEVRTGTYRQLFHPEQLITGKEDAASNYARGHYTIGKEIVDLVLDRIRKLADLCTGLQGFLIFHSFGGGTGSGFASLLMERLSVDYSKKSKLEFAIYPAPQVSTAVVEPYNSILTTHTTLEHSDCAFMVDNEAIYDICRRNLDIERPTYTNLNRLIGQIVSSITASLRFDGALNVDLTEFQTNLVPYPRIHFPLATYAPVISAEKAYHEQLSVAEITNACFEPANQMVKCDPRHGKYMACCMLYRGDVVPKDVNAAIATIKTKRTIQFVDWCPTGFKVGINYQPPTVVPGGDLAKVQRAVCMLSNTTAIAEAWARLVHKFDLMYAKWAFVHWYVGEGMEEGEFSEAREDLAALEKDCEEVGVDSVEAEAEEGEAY

T1: kinesin family member C1 (KIFC1) (human) (UniProt Q9BW19)
T1 sequence: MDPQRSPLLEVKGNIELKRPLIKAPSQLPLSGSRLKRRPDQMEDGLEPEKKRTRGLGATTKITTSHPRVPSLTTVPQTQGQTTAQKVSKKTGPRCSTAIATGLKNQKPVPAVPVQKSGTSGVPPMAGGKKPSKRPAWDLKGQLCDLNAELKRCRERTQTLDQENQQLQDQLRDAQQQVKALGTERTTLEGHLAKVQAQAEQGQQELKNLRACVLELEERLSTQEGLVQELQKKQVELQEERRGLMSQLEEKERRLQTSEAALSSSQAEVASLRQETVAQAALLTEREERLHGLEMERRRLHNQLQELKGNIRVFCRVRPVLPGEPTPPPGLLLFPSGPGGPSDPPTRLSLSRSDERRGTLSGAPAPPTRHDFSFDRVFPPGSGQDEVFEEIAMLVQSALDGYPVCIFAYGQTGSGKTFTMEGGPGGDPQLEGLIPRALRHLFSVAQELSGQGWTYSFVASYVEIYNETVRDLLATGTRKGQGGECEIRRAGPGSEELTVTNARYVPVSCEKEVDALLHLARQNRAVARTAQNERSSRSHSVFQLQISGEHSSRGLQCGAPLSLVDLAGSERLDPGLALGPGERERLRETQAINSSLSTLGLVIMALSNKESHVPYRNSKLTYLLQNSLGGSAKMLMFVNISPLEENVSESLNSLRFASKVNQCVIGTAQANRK


Assays:
[1] = target: T1, kinesin family member C1 (KIFC1) (human); experiment: affinity purification with mass spectrometry; anti-KIFC1 antibody (Abcam ab172620) crosslinked to magnetic beads; nuclear lysate of BT-549 (EA) cells; LC-MS/MS of the eluate
[2] = target: T1, kinesin family member C1 (KIFC1) (human); experiment: affinity purification with mass spectrometry; anti-KIFC1 antibody (Abcam ab172620) crosslinked to magnetic beads; nuclear lysate of MDA-MB-468 (AA) cells; LC-MS/MS of the eluate
[3] = target: T1, kinesin family member C1 (KIFC1) (human); experiment: affinity purification with mass spectrometry; anti-KIFC1 antibody (Abcam ab172620) crosslinked to magnetic beads; nuclear lysate of HCC1806 (AA) cells; LC-MS/MS of the eluate

binding [1]	binding [2]	binding [3]	Molecule
binds			K1C19_HUMAN (from UniProt P08727 1-400)
binds			H11_HUMAN (from UniProt Q02539 1-215)
binds			RP3A_HUMAN (from UniProt Q9Y2J0 1-694)
	binds	binds	MYH10_HUMAN (from UniProt P35580 1-1976)
	binds	binds	LIMA1_HUMAN (from UniProt Q9UHB6 1-759)
binds			EF1A2_HUMAN (from UniProt Q05639 1-463)
binds			R13P3_HUMAN (from UniProt Q6NVV1 1-102)
	binds	binds	HNRPK_HUMAN (from UniProt P61978 1-463)

The next lines start with the molecule.

Molecule	binding [1]	binding [2]	binding [3]
EF1A3_HUMAN (from UniProt Q5VTE0 1-462)	binds		
POTEE_HUMAN (from UniProt Q6S8J3 1-1075)		binds	binds
PTBP1_HUMAN (from UniProt P26599 1-557)		binds	binds
CPSF6_HUMAN (from UniProt Q16630 1-551)		binds	binds
EF1A1_HUMAN (from UniProt P68104 1-462)	binds		
DREB_HUMAN (from UniProt Q16643 1-649)		binds	binds
TBA3E_HUMAN (from UniProt Q6PEY2 1-450)		binds	binds
MYO1D_HUMAN (protein, UniProt O94832 1-1006) MAEQESLEFGKADFVLMDTVSMPEFMANLRLRFEKGRIYTFIGEVVVSVNPYKLLNIYGRDTIEQYKGRELYERPPHLFAIADAAYKAMKRRSKDTCIVISGESGAGKTEASKYIMQYIAAITNPSQRAEVERVKNMLLKSNCVLEAFGNAKTNRNDNSSRFGKYMDINFDFKGDPIGGHINNYLLEKSRVIVQQPGERSFHSFYQLLQGGSEQMLRSLHLQKSLSSYNYIHVGAQLKSSINDAAEFRVVADAMKVIGFKPEEIQTVYKILAAILHLGNLKFVVDGDTPLIENGKVVSIIAELLSTKTDMVEKALLYRTVATGRDIIDKQHTEQEASYGRDAFAKAIYERLFCWIVTRINDIIEVKNYDTTIHGKNTVIGVLDIYGFEIFDNNSFEQFCINYCNEKLQQLFIQLVLKQEQEEYQREGIPWKHIDYFNNQIIVDLVEQQHKGIIAILDDACMNVGKVTDEMFLEALNSKLGKHAHFSSRKLCASDKILEFDRDFRIRHYAGDVVYSVIGFIDKNKDTLFQDFKRLMYNSSNPVLKNMWPEGKLSITEVTKRPLTAATLFKNSMIALVDNLASKEPYYVRCIKPNDKKSPQIFDDERCRHQVEYLGLLENVRVRRAGFAFRQTYEKFLHRYKMISEFTWPNHDLPSDKEAVKKLIERCGFQDDVAYGKTKIFIRTPRTLFTLEELRAQMLIRIVLFLQKVWRGTLARMRYKRTKAALTIIRYYRRYKVKSYIHEVARRFHGVKTMRDYGKHVKWPSPPKVLRRFEEALQTIFNRWRASQLIKSIPASDLPQVRAKVAAVEMLKGQRADLGLQRAWEGNYLASKPDTPQTSGTFVPVANELKRKDKYMNVLFSCHVRKVNRFSKVEDRAIFVTDRHLYKMDPTKQYKVMKTIPLYNLTGLSVSNGKDQLVVFHTKDNKDLIVCLFSKQPTHESRIGELVGVLVNHFKSEKRHLQVNVTNPVQCSLHGKKCTVSVETRLNQPQPDFTKNRSGFILSVPGN		binds	binds
AROS_HUMAN (protein, UniProt Q86WX3 1-136) MSAALLRRGLELLAASEAPRDPPGQAKPRGAPVKRPRKTKAIQAQKLRNSAKGKVPKSALDEYRKRECRDHLRVNLKFLTRTRSTVAESVSQQILRQNRGRKACDRPVAKTKKKKAEGTVFTEEDFQKFQQEYFGS	binds		
